## Results of single-concentration screens

By UniProt entry, the sequences of proteins in these tests, tags left out.
UniProt P9WFT3, whole entry: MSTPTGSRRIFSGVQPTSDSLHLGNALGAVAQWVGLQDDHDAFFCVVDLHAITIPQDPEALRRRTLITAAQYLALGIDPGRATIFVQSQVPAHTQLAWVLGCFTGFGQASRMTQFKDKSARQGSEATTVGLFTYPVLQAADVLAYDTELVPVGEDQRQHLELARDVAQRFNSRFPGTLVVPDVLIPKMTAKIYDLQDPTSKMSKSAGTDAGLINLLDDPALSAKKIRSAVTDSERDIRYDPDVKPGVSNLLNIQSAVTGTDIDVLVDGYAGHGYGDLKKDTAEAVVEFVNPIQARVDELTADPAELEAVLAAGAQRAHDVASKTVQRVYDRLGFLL

Results are given as percent effect.
How 0% and 100% were set is not recorded. Most values in the screen are low, and negative values occur.
Compounds were drawn at random from those tested, without regard to their results.

Leishmania in macrophages: 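Cell assay of Leishmania donovani living inside macrophages; the read-out is not stated. Concentration: 30 µM. Direction is inferred from retests: higher values go with stronger inhibition. Size under these conditions: about 69,000 compounds, about 1,000 of them at 50% or above in at least one test.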
MtTrpRS: 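Tryptophan-tRNA ligase, Mycobacterium tuberculosis (UniProt P9WFT3). Enzyme assay of tryptophanyl-tRNA synthetase; the read-out is not stated. Compounds at 10 µM. Higher most likely means stronger inhibition; the record gives no direction and few retests gave an IC50. About 65,000 compounds were tested under these conditions; 0.098% (about 64) showed 50% or more at least once.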
T. brucei: 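Whole-parasite assay of Trypanosoma brucei over 72 hours; the read-out is not stated. Concentration: 30 µM. Direction is inferred from retests: higher values go with stronger inhibition. Values scatter widely below zero; nearly all retest evidence comes from the higher of the two concentrations used. Of about 64,000 compounds tested this way, about 940 (1.5%) reached 50% or more in at least one test.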

- COCCOc1ncccc1C(=O)N(C)c1nccs1 | Leishmania in macrophages: 4.431%; MtTrpRS: 2.384%; T. brucei: -7.605%
- CN1CCN(CC2(O)CCN(C(=O)CCc3ccccc3F)C2)CC1 (stereo not drawn) | Leishmania in macrophages: 19.09%; MtTrpRS: -1.693%; T. brucei: -0.6045%
- O=C(O)C(F)(F)F.[H][C@@]12CN(c3nnc(C)s3)C[C@H](C(=O)NCC3CC3)[C@]1([H])CCO2 | Leishmania in macrophages: -0.7744%; T. brucei: -15.02%
- CC(=O)NCc1ccc(C(=O)N2CCCC2c2cnn(C)c2)cc1 (stereo not drawn) | Leishmania in macrophages: 25.83%; MtTrpRS: -0.145%
- CCc1c(C)nc(-n2nc(C3CC3)cc2NC(C)=O)[nH]c1=O | Leishmania in macrophages: 18.69%; MtTrpRS: -0.3708%; T. brucei: -1.646%
- COc1ccc(CC(=O)NC2CCN(CC(F)F)CC2)cc1OC | Leishmania in macrophages: -8.917%; MtTrpRS: -4.672%; T. brucei: -7.867%
- Cn1cc(CN2CCCC(CCc3c(F)cccc3F)C2)cn1 (stereo not drawn) | Leishmania in macrophages: -1.289%; MtTrpRS: -0.149%; T. brucei: -45.27%
- COCCN1CC=C(c2cccc(OC)c2)CC1 | Leishmania in macrophages: -39.53%; MtTrpRS: 3.381%; T. brucei: -240.6%
- CCn1c(Cn2cncn2)nnc1C1CCN(Cc2ccncc2)CC1 | Leishmania in macrophages: 35.36%; MtTrpRS: 2.85%; T. brucei: -25.28%
- Cc1cnc(CNc2ncc(C)c(-c3cnn(C)c3)n2)cn1 | Leishmania in macrophages: 7.938%; MtTrpRS: 2.506%; T. brucei: 2.953%
- Cc1nn(CC(C)C)c(N(C)C)c1CNCc1cccc2c1OCO2 | Leishmania in macrophages: 20.24%; MtTrpRS: -6.182%; T. brucei: -44.41%
- O=C(O)C(F)(F)F.O=C(O)C(F)(F)F.O=C(O)C(F)(F)F.c1cncc(C[C@H]2[C@H](N3CCOCC3)CCN2Cc2nccs2)c1 | Leishmania in macrophages: 12.66%; T. brucei: -1.427%
- CC(C)C[C@H](N)COc1cccc(F)c1Oc1ccc(Cl)cc1 | Leishmania in macrophages: 96.61%; MtTrpRS: -4.158%; T. brucei: 100.5%
- [H][C@@]12CCN(Cc3cnn(C)c3)C[C@@]1([H])O[C@@H](c1nc(C)c(C)s1)C2 | Leishmania in macrophages: -32.4%; T. brucei: -31.41%
- COCCNC(=O)[C@]12COC[C@H]1CN(C1CCOCC1)C2 | MtTrpRS: -0.08176%
- COC[C@@]12CCO[C@@H]1CCN(C(=O)c1ccc(F)c(F)c1)C2 | MtTrpRS: -3.303%
- CC(C(=O)NC1CC1)n1nc(-c2cccs2)cc(N)c1=O (stereo not drawn) | Leishmania in macrophages: -1.622%; MtTrpRS: -3.453%; T. brucei: -12.39%
- COc1c(C)cnc(CN2CCC(N(C)S(C)(=O)=O)CC2)c1C | Leishmania in macrophages: 20.65%; MtTrpRS: 5.221%
- CCC(=O)N1CCCC1C(=O)N1CCC(Cc2ccc(F)cc2)CC1 (stereo not drawn) | Leishmania in macrophages: -0.6193%; MtTrpRS: 2.203%; T. brucei: -45.65%

The first 2 entries again:

{"structure": "COCCOc1ncccc1C(=O)N(C)c1nccs1", "Leishmania in macrophages": 4.431, "MtTrpRS": 2.384, "T. brucei": -7.605}
{"structure": "CN1CCN(CC2(O)CCN(C(=O)CCc3ccccc3F)C2)CC1", "stereo": "stereo not drawn", "Leishmania in macrophages": 19.09, "MtTrpRS": -1.693, "T. brucei": -0.6045}

From ChEMBL document CHEMBL3988442, “University of Dundee, Small-Polar-MMV Screening Library” (2021).